Binding data for one molecule are collected here from publication doi:10.1101/2025.02.28.640455.

Amino acid sequences for entries named in this document (tags omitted).
UniProt Q60722: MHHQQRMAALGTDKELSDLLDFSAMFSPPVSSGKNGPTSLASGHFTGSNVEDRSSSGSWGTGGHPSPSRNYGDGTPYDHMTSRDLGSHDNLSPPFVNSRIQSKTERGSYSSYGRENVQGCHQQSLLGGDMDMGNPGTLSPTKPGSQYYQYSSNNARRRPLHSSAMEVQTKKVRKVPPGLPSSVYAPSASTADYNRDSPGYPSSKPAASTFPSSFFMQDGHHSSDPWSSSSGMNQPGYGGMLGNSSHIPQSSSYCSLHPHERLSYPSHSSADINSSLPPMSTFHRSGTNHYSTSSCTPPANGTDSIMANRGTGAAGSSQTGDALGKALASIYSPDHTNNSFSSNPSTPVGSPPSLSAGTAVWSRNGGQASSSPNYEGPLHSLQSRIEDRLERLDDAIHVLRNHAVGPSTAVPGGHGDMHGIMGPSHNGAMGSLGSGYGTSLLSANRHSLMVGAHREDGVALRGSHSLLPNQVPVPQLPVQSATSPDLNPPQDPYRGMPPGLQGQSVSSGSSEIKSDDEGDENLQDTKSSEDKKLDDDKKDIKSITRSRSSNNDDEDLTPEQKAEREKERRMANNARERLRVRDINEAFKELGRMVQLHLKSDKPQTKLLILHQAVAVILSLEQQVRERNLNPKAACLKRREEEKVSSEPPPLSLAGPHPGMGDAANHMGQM

The target of this assay is Transcription factor 4 (TCF4) (mouse (endogenous in E12.5 Nr5a1-GFP gonadal cells)) (UniProt Q60722). Briefly: co-IP; endogenous TCF4 immunoprecipitated from sorted XY Nr5a1-GFP cells (2 million cells / IP), eluate blotted for MED8; IgG IP in parallel.

These are yes or no findings as the source states them, for the method shown. Binding seen in cells or lysates may run through a third protein. Some results given as binding are weak or reduced against the parent protein; the word gives no strength.

B1: Mediator 8 (protein, UniProt Q9D7W5 1-268)
chain: MQREEKQLEASLDALLNQVADLKNSLGSFIYKLENEYDRLTWPSVLDSFALLSGQLNTLNKVLKHEKTPLFRNQVIIPLVLSPDRDEDLMRQTEGRVPVFSHEVVPDHLRTKPDPEVEEQEKQLTTDAARIGADAAQKQIQSLNKMCSNLLEKISKEERESESGGLRPNKQTFNPGDTNALVAAVAFGKGLSNWRPSGSSGPGQPGQPGAGTILAGASGLPQVQMPGAPNQQQPMLSGVQMAQAGQPGKMPSGIKTNIKSASMHPYQR
With B1, the binding entry is “binds”.
